## Results of single-concentration screens

Results are given as percent effect. How 0% and 100% were set is not recorded. Most values in the screen are low, and negative values occur. The compounds are a random part of those screened. Two or more numbers in one place are separate tests of the same structure; such repeats can differ widely.

Mtb glucose medium: 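Phenotypic screen: M. tuberculosis growth, glucose 7H9 medium, 3 days; the read-out is not stated. Tested at 50 µM. The record gives no direction; compounds that gave an IC50 in retests scored well above the rest, so higher reads as more growth inhibition. Size under these conditions: about 69,000 compounds, about 760 of them at 50% or above in at least one test.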
Mtb cholesterol medium: 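Phenotypic screen: M. tuberculosis growth, cholesterol and DPPC medium, 4 days; the read-out is not stated. Concentration: 50 µM. Higher reads as more growth inhibition (inferred: compounds with an IC50 in retests scored well above the rest). Size under these conditions: about 69,000 compounds, about 370 of them at 50% or above in at least one test.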

Compound	Mtb glucose medium	Mtb cholesterol medium
Cc1nc(-n2nc(-c3cccs3)cc2N)[nH]c(=O)c1C	51.09%	11.34%
O=C1COc2cccc(OCc3ccccn3)c2N1	14.55% and -0.2298%	-10.55%
Cc1ccc(CN2C(=O)OCC2CO)c2ccccc12 (centres unmarked)	18.42%	2.896%
CC(C(=O)NCc1ccc(N2CCNC(=O)C2)cc1)n1cncn1 (centres unmarked)	-16.98%	-12.64%
Cc1ccc(NC2CCN(C(=O)Cn3nc(C)cc3C)CC2)nn1	-23.58%	-15.54%
CN(C)C(=O)CN1CCN(C(=O)Cc2csc(-c3ncccn3)n2)CC1	-18.79%	-4.201%
O=C(CCc1cscn1)NS(=O)(=O)c1ccc2ccccc2c1	1.539% and -8.747%	-8.003%
CCC(C)(NCC(=O)N(c1ccccc1)C(C)C)c1nc(C)cs1 (centres unmarked)	6.375%	-6.264%
Cn1cccc1CCC(=O)N1CCC2(CC1)c1ccccc1CC2O (centres unmarked)	17.29%	18.89%
O=C(O)C(F)(F)F.c1ccc(CN2CCc3ncnc(C4CC4)c3CC2)cc1	-6.556%	-0.8986%
Cc1cc(CNc2ccccc2Cl)no1	-7.383%	-14.5%
CCOC(=O)N1CCN(C(=O)CCn2ccc3c(OC)cccc32)CC1	7.293% and -3.624%	-5.305%
O=C(O)C(F)(F)F.[H][C@]12CCC(=O)N(c3ccccc3)[C@@]1([H])CCN2c1ncccn1	-18.14%	-10.15%
CC(C)c1noc(CCC(=O)NCC(c2ccco2)N2CCCC2)n1 (centres unmarked)	-29.62% and -1.925%	-9.332%
O=C1C(NCc2nnc3n2CCCC3)CCN1CC(F)(F)F (centres unmarked)	-24.67%	-3.985%
O=S(=O)(c1cccs1)N1CCC(c2nc(-c3cccs3)no2)CC1	18.34%	-16.81%
COc1ccc2nnc(C(=O)NC3CCCC3)nc2c1	9.297% and 22.12%	25.1%
O=C(c1cnc(-c2cnccn2)s1)N1CCCC1Cn1cccn1 (centres unmarked)	11.37%	8.031%
Cc1n[nH]c(CCC(=O)N2CCOC(Cc3ccc(F)cc3)C2)c1C (centres unmarked)	10.5%	-1.12%
CC(C)OCCN1CCC(Nc2ncccn2)CC1	5.153%	11.88%
CCn1ncc2c1CCCC2NCc1ccc(OC)c(C)c1 (centres unmarked)	18.26%	8.013%
Cl.Cl.c1cnc(NCc2cncc3c2CCN(Cc2ccoc2)C3)nc1	-21.4%	-26.31%
CN(C)CC1(O)CCCN(C(=O)Cn2nc3ccccc3n2)CC1 (centres unmarked)	-0.4194% and -13.84%	-11.68%
O=C1c2cc(Br)cc(Br)c2OCC1(CN1CCCC1)CN1CCCC1	-15.86%	-16.06%
Cc1cccc(-c2noc([C@@H]3C[C@@H](O)CN3C3CCOCC3)n2)c1	-5.309% and 18.12%	0.1893%
CN(C)CCN1C(=O)CCCC12CCCN(C(=O)c1cc[nH]n1)C2.O=C(O)C(F)(F)F (centres unmarked)	9.366%	3.681%
O=C(c1ncn2c1CNS(=O)(=O)c1ccccc1-2)N1CCCCC1	-0.1813% and -13.68%	7.097%
c1c(-c2nc(CN3CCOCC3)no2)nnn1CC1CCCCC1	-21.75%	-9.501%
CC1=C(C(=O)N2CCOC(Cc3cccc(C(F)(F)F)c3)C2)OCCO1 (centres unmarked)	27.05% and 1.693%	-4.899%
Cc1n[nH]c(C)c1CCNC(=O)Nc1ccc(S(C)(=O)=O)cc1	13.75% and -7.801%	5.176%
COc1c(C)cnc(CN2CCCC(c3noc(C4CC4)n3)C2)c1C (centres unmarked)	-29.09%	-35.61%
COc1cccn(Cc2nnc(-c3cccc(F)c3)o2)c1=O	4.187%	-1.287%
COCCOc1ccccc1C(=O)N1CCCCC1c1nccs1 (centres unmarked)	25%	-9.227%
CC(C)NC(=O)C1CCC2(CCN(Cc3cnn(C)c3)CC2)C1.O=C(O)C(F)(F)F (centres unmarked)	-4.902%	-19.01%
CCc1nc(NCc2ccccn2)c2c(n1)c(C)nn2C	0.9907%	3.373%
Cc1cnc(C(=O)N2CC(=O)N(c3ccccc3Cl)CC2C)cn1 (centres unmarked)	4.677%	0.0654%
CC(C)NC(=O)C1CN(C(=O)c2ccc(F)cc2)CC12CCOCC2 (centres unmarked)	-18%	-18.86%
CC(C)C1CN(Cc2c[nH]cn2)CCCN1CC1CC1 (centres unmarked)	-15.54%	-9.608%
CCCc1cncnc1N1CCC(NCCc2ccc(O)cc2)CC1	4.409% and 16.74%	9.888%
O=C(O)C(F)(F)F.[H][C@@]12CN(C3CCOCC3)C[C@@]1([H])N(Cc1cccc(F)c1)C(=O)CO2	-9.187%	-0.4813%
COCC(=O)N1CCCC1c1cccc(Nc2ncc(C)s2)n1 (centres unmarked)	-0.5717%	3.172%
CC(C)CC(=O)NC[C@H]1CC[C@H](C(c2ccccn2)N(C)C)CC1 (some centres unmarked)	-7.214%	16.05%
O=C(NCCc1cccnc1)c1ccc2nccn2c1	-4.212% and 1.801%	-12.85%
Fc1ccc(CN2CCCC(c3nnc(-c4cnccn4)o3)C2)cc1F (centres unmarked)	43.82%	18.82%
COCc1ncn2c1CN(C(=O)C1CC=CC1)CC2	2.041%	0.1527%
CS(=O)(=O)N1CC2(CCN(Cc3ccccn3)C2)Cc2ccccc21 (centres unmarked)	4.931%	-5.637%
Cn1cc(C2CCCN2C(=O)c2cnc(-c3ccco3)s2)cn1 (centres unmarked)	-9.695%	-11.64% and -12.13%
Cc1cc(C)n(CC2CCCCN2CC(=O)Nc2nncs2)n1 (centres unmarked)	7.247%	-14.44%
CC(C)C(C)(C#N)NC(=O)Cn1cc(I)cn1 (centres unmarked)	0.8326%	10.75% and -8.37%
Cc1cc(NC(=O)c2ccc(Br)cc2F)n(C)n1	-32%	-13.18%
CN(CC1CN(CCn2cc(C#N)cn2)CCO1)c1cccnn1 (centres unmarked)	-5.97% and -0.6776%	-3.609%
COCCN1CCCC12CCCN(c1ncccn1)C2 (centres unmarked)	-2.974% and 9.127%	10.59% and -19.89%
Cc1cc(CN(C)CC2CCCN(CCc3ccc(Cl)cc3)C2)[nH]n1 (centres unmarked)	11.8%	-6.609%
CCOc1cccc(C(=O)NCCC(=O)NCc2ccncc2)c1	6.168%	-21.42%
O=C(COCC(=O)N1CCCCCC1)NCc1cccc(Br)c1	3.849%	0.4292%
Cc1nn(C)c(N2CCOCC2)c1CNC1CCS(=O)(=O)C1 (centres unmarked)	-18.89%	-5.246%
CN1CCN(c2cc(CNC(=O)c3ccc(Cl)o3)ccn2)CC1	24.2%	-10.62%
CNc1cncc(C2CCCN2C(=O)Cn2ccnc2C)n1 (centres unmarked)	-21.81%	12.08% and -6.126%
CCN(CC)c1ccc(C(=O)NCC2(C(N)=O)CCOCC2)cn1	-36.86% and -2.658%	-13%
CC(C)n1ccnc1C1CCCN(c2ccnc3ccccc23)C1 (centres unmarked)	19.32%	7.807%
Fc1cccc(-c2nccnc2C2CCCNC2)c1 (centres unmarked)	0.8765%	5.29%
CCC(C)(C)CC(=O)NC(C)C(=O)Nc1ccc(-n2cncn2)cc1 (centres unmarked)	15.23%	9.6%
Cc1nnc(NC(=O)NCc2ccc(N3CCOCC3)nc2)s1	-8.628%	-9.87%
COCc1ccc(C(=O)N2CCOCC2c2ccc(C)o2)cc1 (centres unmarked)	5.443%	-8.618% and 3.689%
O=C(c1ccc(-c2ccccc2)[nH]c1=O)N1CCN(C2CC2)CC1	-31.95% and -6.382%	-7.674%
CN(C)C(=O)N1CCN(C(=O)c2ccn3cncc3c2)CC1	-14.91%	-0.8732%

The last 5 entries again:

Compound,Mtb glucose medium,Mtb cholesterol medium
CCC(C)(C)CC(=O)NC(C)C(=O)Nc1ccc(-n2cncn2)cc1 (centres unmarked),15.23%,9.6%
Cc1nnc(NC(=O)NCc2ccc(N3CCOCC3)nc2)s1,-8.628%,-9.87%
COCc1ccc(C(=O)N2CCOCC2c2ccc(C)o2)cc1 (centres unmarked),5.443%,-8.618% and 3.689%
O=C(c1ccc(-c2ccccc2)[nH]c1=O)N1CCN(C2CC2)CC1,-31.95% and -6.382%,-7.674%
CN(C)C(=O)N1CCN(C(=O)c2ccn3cncc3c2)CC1,-14.91%,-0.8732%

Source: ChEMBL document CHEMBL3988442, “University of Dundee, Small-Polar-MMV Screening Library” (2021).